The source of these data is PubChem BioAssay AID1347426 (Functional Genomics Laboratory (NCATS/FGL), 2020).

In all, about 31,000 sequences went through this assay and about 1,400 (4.5%) were called active.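 How the source made its calls: active means median seed-adjusted z-score above 1 or below -1; inactive means the rest.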 The list shows a part of the results.

The nature of this assay: Novel Modifiers of Survival Motor Neuron (SMN) Protein: Gene Identification via Genome-wide siRNA Screen.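 Further: luminescence tracks full-length SMN protein made from the SMN2 reporter.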 As to conditions: HEK293T SMN2-luciferase reporter, siRNA knockdown, 72 h; actives lie on both sides. A digest of the protocol: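 Genome-wide siRNA screen (10418 genes, 3 siRNAs each, 1 pmol per well) by reverse transfection in HEK293T cells stably carrying an SMN2-luciferase reporter; luminescence after 72 hours, normalized to negative-control siRNA, log10-transformed, MAD-scored.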
As to CCACGACCAUGAGAAUGGATT against MAPKAPK5, the median seed-adjusted z-score was inactive: 0.489.

As to GAUCAUCCCUUGUCUCUUUTT against CHRNA6, the median seed-adjusted z-score is inactive: 0.21.

As for CACUGGUCAUGGAAAACGATT against KLK4, the median seed-adjusted z-score is inactive: 0.437.

CAAUAUCACUACUCUUUAATT against FEV: the median seed-adjusted z-score was inactive: 0.174.

In the case of GCACGUUUUCAAUAUCAUATT against POLE2, the median seed-adjusted z-score was inactive: -0.584.

On to GUACCCAAGUAACAACUGUTT against CXCL11, for which the median seed-adjusted z-score is inactive: -0.135.

GGAUAUGCAUGCAAUCAAATT against ADAM23: the median seed-adjusted z-score was inactive: -0.0279.

Consider GAGCAAGGGUUGUUUGGGATT against THAP8, for which the median seed-adjusted z-score is inactive: -0.872.

Consider CCACUUCAAGAAAACUUCATT against ZSCAN22, for which the median seed-adjusted z-score was inactive: 0.277.

For the sequence CCAGUACCAAAGUUGAUAATT against RB1, the median seed-adjusted z-score was inactive: 0.49.

AGAGCCUUAUGAUCGAGCATT against SGK2: the median seed-adjusted z-score was inactive: 0.306.

Take GCAGCUCAUUCAGACCUAUTT against PLCD3: the median seed-adjusted z-score was inactive: 0.228.

With GCUUGUGCCCAGAAUUUCATT against ADCK4, the median seed-adjusted z-score was inactive: -0.181.

Turning to CAAUCACUGUGGAAUAUCATT against INPPL1, the median seed-adjusted z-score is inactive: 0.199.

AGGUCAAGCUUAGUGACAATT against ZDHHC8: the median seed-adjusted z-score was inactive: 0.

On to GGAGUAACUGAGAUAGAAATT against AGPAT3, for which the median seed-adjusted z-score was inactive: 0.

On to GGAUCUACUCGACUCCCUUTT against HOXC6, for which the median seed-adjusted z-score is inactive: -0.137.

With GAAAAUGUGGGAUCAAGAATT against COQ7, the median seed-adjusted z-score was inactive: 0.159.

As to CAGGUCGGAUGGUAAAUUUTT against MFHAS1, the median seed-adjusted z-score was inactive: -0.267.

GCCUUAAUGUAAUACAGCATT against NANOG: the median seed-adjusted z-score is inactive: -0.106.

Take CUUUGUCAGAGAUCACUUATT against PIPOX: the median seed-adjusted z-score was active: 1.06.

Take CACUAUGGAUGCUAUCAAATT against COL1A2: the median seed-adjusted z-score was inactive: 0.481.

As to CCGUGAAUAUGAUUGCUAUTT against LIG4, the median seed-adjusted z-score was inactive: 0.576.

For the sequence CUACCGCAAUGAAUGUGCATT against FST, the median seed-adjusted z-score is inactive: 0.357.

As for GGAUCUUCAAAGGAUCGGATT against PKN2, the median seed-adjusted z-score is inactive: 0.383.

With GCUGGUUCAUUUUUCAGAATT against KMO, the median seed-adjusted z-score was inactive: 0.443.

For GAUUUUUGGGAAUACUAUATT against MCM9, the median seed-adjusted z-score was inactive: -0.709.

With CCUUAACAGACGGAAUGAATT against CLDN5, the median seed-adjusted z-score is inactive: 0.

As for UAUCUUCUCUCUACACCAATT against PLA2G4C, the median seed-adjusted z-score was inactive: 0.331.

In the case of CCAUCAAGAAUAUCAAAGATT against S100A12, the median seed-adjusted z-score is inactive: 0.346.

Consider CGACCGCAACCUGAAGACATT against TCF7, for which the median seed-adjusted z-score was inactive: -0.338.

With GAACAUUGGUCUGUCUAUATT against SNX14, the median seed-adjusted z-score was inactive: 0.

CAAAUUGGAUUGAGACUAUTT against NAMPT: the median seed-adjusted z-score was inactive: 0.

As to GAAGAGCCUUUGAUCUCUATT against ANTXR2, the median seed-adjusted z-score is inactive: -0.727.

Consider GGAAUUUGUUUGUCAUGCATT against GATAD1, for which the median seed-adjusted z-score is inactive: 0.328.

Turning to GGACCGCAAGUACACUCUATT against TAF10, the median seed-adjusted z-score is inactive: -0.587.

With GAGAAGGCAUUGUUACUAATT against GKAP1, the median seed-adjusted z-score was inactive: -0.119.

Turning to GCAUCCUUACAGCACUGCATT against XRCC3, the median seed-adjusted z-score was inactive: 0.332.

Take GGACUACAAGGAUAACCCATT against SF4: the median seed-adjusted z-score was inactive: 0.498.

Take GCCCUUCCUUGAGUUCAAATT against SULT1A2: the median seed-adjusted z-score is inactive: 0.0541.

On to GGAUGUUUUCGAAACGCAUTT against BRDT, for which the median seed-adjusted z-score is inactive: -0.357.

For the sequence GGAUCCCGCUGCACAAGUUTT against CTSD, the median seed-adjusted z-score was inactive: -0.282.

Take CGAGCGCAAAGCAAACGUATT against NR0B1: the median seed-adjusted z-score is inactive: -0.526.

For the sequence GCAGAUCCGAUACACGAUUTT against PCDHGB1, the median seed-adjusted z-score is inactive: -0.482.

With GCAACAAUGUGGGACUAUATT against CHPT1, the median seed-adjusted z-score was inactive: 0.0678.

On to CAGGCUAUCUAGCUUGAUATT against LARP5, for which the median seed-adjusted z-score is inactive: -0.144.

With UUCUUGCACUACAACCUGATT against PIGZ, the median seed-adjusted z-score is inactive: 0.74.

As for GUUUAAGUCAGAAACCAAATT against MSRB3, the median seed-adjusted z-score is inactive: -0.218.

On to CCACUUUUCCAGUACCAGATT against ZNF333, for which the median seed-adjusted z-score was inactive: 0.418.

For GACUGUAAAUUGACAUGCATT against SCUBE3, the median seed-adjusted z-score is inactive: 0.152.

Regarding GCUACUAUCGAGAUCACAATT against NDST3, the median seed-adjusted z-score was inactive: 0.476.

As for GACUGUCAAGGGAUGAGCATT against HS6ST1, the median seed-adjusted z-score is inactive: -0.436.

Turning to ACCCAGAUAUGGAUCUGCATT against TTLL10, the median seed-adjusted z-score is inactive: 0.211.

In the case of GCAGGAAAUAGAUCGUUAUTT against RAB1A, the median seed-adjusted z-score was inactive: 0.395.

With AUGGAGAUACUUUAAGUUATT against SPRYD3, the median seed-adjusted z-score was inactive: 0.207.

As for CUAUCCUCCCUAUAUCUCATT against OPCML, the median seed-adjusted z-score was inactive: -0.282.

For CCCGAAAGCUAAUAUCGUUTT against UBA2, the median seed-adjusted z-score is inactive: 0.694.

With GCGUGGAACCGGACAUCAATT against TPSD1, the median seed-adjusted z-score was inactive: 0.0848.

As to GCCGGUAUGUGAAGGAGAATT against CLK3, the median seed-adjusted z-score is active: -1.11.

For CAUGUCACCUGCAAAAUUATT against THEM2, the median seed-adjusted z-score was inactive: 0.449.

As for CGAAACAAGUGACACCUCATT against IL2RA, the median seed-adjusted z-score was inactive: 0.587.

Regarding AGCACUUGCUGACUAACGATT against BCL11B, the median seed-adjusted z-score was inactive: 0.163.

GGAGGAUUGAAAUAGCACATT against HOXA5: the median seed-adjusted z-score is inactive: 0.

Regarding AGAUGCACAUGAUCCUGUATT against KCNN4, the median seed-adjusted z-score was inactive: 0.00864.

In the case of CGUGGACAAUGUCAAACAUTT against KPNA2, the median seed-adjusted z-score is inactive: 0.157.

With GCAGUGGACCAAAUAUGAATT against UQCRB, the median seed-adjusted z-score is inactive: 0.348.

As to GGAUUACUGCGUCGAUUCATT against ETV5, the median seed-adjusted z-score was inactive: 0.0756.

As for CAUGCAAGAUUGAAGUAAATT against CHRNB2, the median seed-adjusted z-score was inactive: -0.649.

Consider CAAGUUCUAUCACUCCUUUTT against IRX2, for which the median seed-adjusted z-score was inactive: -0.409.

Turning to GGAACAUACAAGUUACCAATT against SLAMF6, the median seed-adjusted z-score was inactive: 0.0115.

Consider GCUCUGCCGGAGAGACUAUTT against LMO2, for which the median seed-adjusted z-score is inactive: 0.

As for GACUUUCACAGUUCACCGATT against KCTD3, the median seed-adjusted z-score is inactive: 0.603.

Regarding GAGUUUAACCUGACGGAUATT against BEST1, the median seed-adjusted z-score was inactive: -0.322.

For the sequence GAAACGAUGAGAUCUGUUUTT against PDHA2, the median seed-adjusted z-score was inactive: 0.118.

GUCCUUAUCUUUGCAAAUATT against ARL5B: the median seed-adjusted z-score is inactive: -0.506.

In the case of GCAUAGGUGUUGUUGAUCATT against ARHGAP29, the median seed-adjusted z-score is inactive: -0.0483.

For the sequence GCAAGGACUUUGACUCCUUTT against CLDN22, the median seed-adjusted z-score was inactive: 0.

On to GGUUCAACCUGCAUAGUGATT against SLC9A3R2, for which the median seed-adjusted z-score was inactive: 0.165.

With GUGUCAAAACGUACUCAAATT against DGKG, the median seed-adjusted z-score was inactive: 0.227.

On to CAAAGUAAAUGAGGCCUUUTT against MYOD1, for which the median seed-adjusted z-score is inactive: 0.309.

Regarding CAACGAUAGCUUAUCCCAATT against LPGAT1, the median seed-adjusted z-score is inactive: 0.625.

Regarding CAGAGGUGGUUACACGGAATT against PAK2, the median seed-adjusted z-score was inactive: 0.122.

Turning to GGAAAUAACAGCUCUGAAATT against RPS6KA5, the median seed-adjusted z-score is inactive: -0.0588.

For CCACGGAUGUUCAAUAUCATT against RASA1, the median seed-adjusted z-score is inactive: -0.398.

Take ACAUGUCUUUCCAUCGCAATT against CD5: the median seed-adjusted z-score was inactive: 0.0416.

For the sequence GCAUCGCCAUGAUGUGUAATT against S100A4, the median seed-adjusted z-score was inactive: 0.567.

GACUUUCUAUUAUGCUGUUTT against TF: the median seed-adjusted z-score was inactive: 0.192.

In the case of GUAUCAAUCUUUGCGGAUATT against KL, the median seed-adjusted z-score is inactive: -0.267.

Consider CCUUCAUCGAUAACUCUGATT against UBN1, for which the median seed-adjusted z-score is inactive: 0.0782.

Regarding CGUGUGAAACGGCCCAUGATT against SOX3, the median seed-adjusted z-score is inactive: 0.32.

GACACGUUUUUGGAGGAUATT against SERPINA2: the median seed-adjusted z-score was inactive: 0.285.

Take AACCGGUCCUCAAAUCUUATT against ZNF92: the median seed-adjusted z-score was inactive: -0.375.

With GCACUAACCUCUAUCGUCATT against ZNF530, the median seed-adjusted z-score is inactive: 0.0381.

GCCCGUUUGCUGUAUAUGATT against RHOJ: the median seed-adjusted z-score was inactive: -0.304.

With GAGAUUUAAUAUUGUCGAATT against CNKSR2, the median seed-adjusted z-score was inactive: -0.0536.

As for AGGAAGCUGUGCGAAAUGATT against RARG, the median seed-adjusted z-score was inactive: -0.0492.

As to GCCUAACAGGAGAUCAUAATT against XDH, the median seed-adjusted z-score is inactive: 0.806.

With UCCCAGCACUUAUAGCCUATT against ANKRA2, the median seed-adjusted z-score is active: 1.26.

With CCUCAAAUCGGACACUCAATT against ZNF524, the median seed-adjusted z-score was inactive: 0.00173.

For CCGCGAGUCUGUCCACUAUTT against LPAR2, the median seed-adjusted z-score is inactive: 0.171.

Take UCCUCUAAAAAUUACAGUATT against TUBB2A: the median seed-adjusted z-score was active: 1.03.

As to GGCAUCCUCUCAUUCGAGATT against ADD3, the median seed-adjusted z-score is inactive: 0.0741.

GGUGAUGGUUCAUUCGCAUTT against ZMIZ2: the median seed-adjusted z-score was inactive: -0.27.

Turning to GACUGAAUGAUAUGAAAGATT against RHOQ, the median seed-adjusted z-score is inactive: -0.328.

Turning to GCAGCUCACUUAAGGCCUATT against VPS18, the median seed-adjusted z-score was inactive: 0.181.

For UCUUUAUCUGGUUUGCUUATT against TAAR5, the median seed-adjusted z-score was inactive: 0.573.

CCUCAUCAACUCUGACAUATT against LMO2: the median seed-adjusted z-score was inactive: 0.

With CCAAGAUAUUUAACGACAATT against MTR, the median seed-adjusted z-score was inactive: -0.0696.
